Assay results from the supplement of paper PMC5407854, “Inhibitor of ppGalNAc-T3-mediated O-glycosylation blocks cancer cell invasiveness and lowers FGF23 levels” (eLife, 2017).
Some of the results follow. Most values lie at the level of the controls, where differences are scatter.

What was measured:
[1] = test system: ppGalNAc-T3 sensor; assay: T3 sensor activation Q score (MG/GFP ratio z-score vs DMSO controls) (SD units); higher = more sensor activation (inhibition of ppGalNAc-T3 glycosylation); settings: HEK293 sensor cells; 10 µM; 6 h
Procedure: (§1)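 Cells were treated with compound at 10 uM for 6 h, then MG/GFP ratio was read by flow cytometry (10,000 cells per well, duplicate wells). Q = (R - R_neg)/SD_neg relative to DMSO vehicle controls; the signal rises when the glycosyltransferase is inhibited.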

[2] = test system: ppGalNAc-T2 sensor; assay: T2 sensor activation Q score (MG/GFP ratio z-score vs DMSO controls) (SD units); higher = more sensor activation (inhibition of ppGalNAc-T2 glycosylation); settings: HEK293 sensor cells; 10 µM; 6 h
Procedure: as §1

| SMILES | T3 sensor activation Q score [1] | T2 sensor activation Q score [2] |
| --- | --- | --- |
| C/C(=C\c1ccccc1)CN(C)CCN(C)C | 0.635 | 0.315 |
| CCN1CCN(Cc2ccc(-c3ccccc3)cc2)CC1 | 0.89 | 0.68 |
| CC(CCc1ccccc1)N1CCN(c2ccccc2F)CC1 (centres undefined) | 0.31 | 0.02 |
| Cc1ccccc1CN1CCN(c2ccccn2)CC1 | -0.135 | -0.65 |
| CC(NC(=O)c1ccccc1)C(=O)O (centres undefined) | -0.265 | -0.135 |
| CN(Cc1ccccc1)C(=O)c1cccnc1 | -0.415 | -1.73 |
| CCN(C(=O)Nc1cccc(Cl)c1)c1ccccc1 | -0.475 | -0.325 |
| Cc1cc(C(C)(C)C)ccc1OCCCn1ccnc1 | -0.46 | 0.83 |
| CN(C)CCN(C)Cc1ccc(Br)cc1 | 0.02 | 1.43 |
| CCCCN1C(=O)C(O)=C(C(C)=O)C1c1ccc(OC)c(OC)c1 (centres undefined) | -0.22 | -0.295 |
| COc1ccc(CN2CCCCCC2)c(C)c1C | 0.26 | -0.04 |
| Cc1ccn2c(-c3csc(Nc4ccc(N)cc4)n3)c(C)nc2c1 | -1.04 | -0.035 |
| CC(C)(C)S(=O)(=O)c1ccc(-c2ccccc2)cc1 | 1.55 | -0.745 |
| CCOc1ccccc1N1CCN(Cc2ccc([N+](=O)[O-])cc2)CC1 | 0.47 | 1.35 |
| CCc1ccccc1NC(=O)C(Cc1ccccc1)N1C(=O)c2ccccc2C1=O (centres undefined) | 0.625 | -0.125 |
| OC(CN1CCOCC1)Cn1c2ccccc2c2ccccc21 (centres undefined) | -0.485 | 0.475 |
| CCCOc1ccc(C(=O)N2CCOCC2)cc1OC | 0.185 | 0.595 |
| OC(COC1C2CC3CC(C2)CC1C3)CN1CCCCC1 (centres undefined) | 0.8 | -0.715 |
| CCN(CCN(C)C)Cc1ccccc1F | 1.82 | -0.1 |
| COc1ccc(O)c(CN2CCCC(C)C2)c1 (centres undefined) | 0.25 | 0.515 |
| Cc1ccc(S(=O)(=O)CCC(=O)O)cc1 | 0.18 | 0.33 |
| COc1cc(N)c(Cl)cc1NC(=O)c1ccccc1 | -0.74 | -0.88 |
| CC(=O)Nc1ccc(C2(c3ccc(NC(C)=O)cc3)NC(=O)c3ccccc32)cc1 | -0.485 | -0.255 |
| O=S(=O)(Nc1ccc(O)c(Br)c1)c1ccc(Cl)cc1 | -0.135 | 0.205 |
| COc1ccc2c(c1C)CCC(C1(O)C(=O)Nc3ccccc31)C2=O (centres undefined) | 0.235 | -0.495 |
| CN(Cc1ccccc1)Cc1ccccc1 | 2.65 | 0.04 |
| Nc1ccc(C2CC(=O)NC(=O)N2)cc1 (centres undefined) | 0.275 | -0.22 |

A section from further up, as a working copy:

| SMILES | T3 sensor activation Q score [1] | T2 sensor activation Q score [2] |
| --- | --- | --- |
| COc1ccc(CN2CCCCCC2)c(C)c1C | 0.26 | -0.04 |
| Cc1ccn2c(-c3csc(Nc4ccc(N)cc4)n3)c(C)nc2c1 | -1.04 | -0.035 |
